PubChem BioAssay AID686938, Drosophila RNAi Screening Center – 2013
Assay: 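Knock-downs reducing store-operated calcium influx in Drosophila cells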 (primary screen). Cells: Drosophila S2R+ cells. Knock-down reagent: long dsRNA against Drosophila genes, about 0.25 µg dsRNA per well, roughly 10,000 cells. Timing: 5 days of knock-down before the calcium assay. Challenge: thapsigargin (SERCA pump blocker) to empty calcium stores; entry signal taken 4 min after adding it. Measurement: 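Duplicate raw fluo-4 intensities per well from a plate reader, at rest and four minutes after thapsigargin emptied calcium stores; entry-to-rest ratio filled for only some wells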. Reading the numbers: calcium entry signal: higher = stronger calcium signal after store depletion; entry to resting ratio: higher = more calcium entry relative to resting level; resting calcium signal: higher = higher resting calcium signal. Active means: 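Hit if the duplicate-averaged plate z-score for entry over resting signal is under −3; wells with weak total dye signal (Fmax z < −2) or more than 5 off-targets removed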. Calls: active = strongly reduced calcium entry; inactive = no strong reduction.
The screen tested about 23,000 reagents; below is a random part of those with a known target gene and a result. Of all reagents, 75 (0.33%) were called active. 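Raw plate signals without normalisation; calls rest on plate z-scores that were not deposited; ratio present for only 364 wells.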 Names joined by + are all predicted targets of the reagent. The record does not give: the dose of the treatment.

| target gene | amplicon | calcium entry signal, replicate 1 (fluorescence units) | calcium entry signal, replicate 2 (fluorescence units) | entry to resting ratio | resting calcium signal, replicate 1 (fluorescence units) | resting calcium signal, replicate 2 (fluorescence units) | call |
| --- | --- | --- | --- | --- | --- | --- | --- |
| tmod (tropomodulin) | DRSC13993 | 3.52e7 | 3.14e7 | – | 1.66e7 | 1.31e7 | inactive |
| tmod (tropomodulin) | DRSC14314 | 3.30e7 | 3.54e7 | – | 1.81e7 | 1.68e7 | inactive |
| tmod (tropomodulin) | DRSC15076 | 4.55e7 | 4.64e7 | – | 2.26e7 | 2.03e7 | inactive |
| tmod (tropomodulin) | DRSC17062 | 3.01e7 | 5.40e7 | – | 1.38e7 | 2.28e7 | inactive |
| swaPsi (swallow pseudogene) | DRSC21685 | 3.64e7 | 3.45e7 | – | 2.24e7 | 1.70e7 | inactive |
| lbm (late bloomer) | DRSC07643 | 2.86e7 | 4.11e7 | – | 1.37e7 | 1.83e7 | inactive |
| CG11373 | DRSC12170 | 4.00e7 | 3.04e7 | – | 2.07e7 | 1.46e7 | inactive |
| Acp33A + CG15841 (retired record) | DRSC01859 | 3.93e7 | 4.58e7 | – | 1.80e7 | 1.90e7 | inactive |
| CG18404 | DRSC15323 | 2.63e7 | 4.16e7 | – | 1.49e7 | 1.93e7 | inactive |
| Ir94g (Ionotropic receptor 94g) | DRSC15231 | 3.45e7 | 4.32e7 | – | 1.80e7 | 1.87e7 | inactive |
| CG8405 | DRSC05599 | 1.55e7 | 4.36e7 | – | 8.32e6 | 2.59e7 | inactive |
| CG8405 | DRSC07166 | 3.64e7 | 4.02e7 | – | 1.52e7 | 1.78e7 | inactive |
| CG4960 | DRSC15684 | 3.36e7 | 4.97e7 | – | 1.94e7 | 2.42e7 | inactive |
| CG2225 | DRSC03722 | 3.66e7 | – | – | 1.77e7 | – | inactive |
| CG2225 | DRSC03723 | 2.67e7 | 4.09e7 | – | 1.50e7 | 1.80e7 | inactive |
| Sec23 (Secretory 23) | DRSC12387 | 2.72e7 | 6.11e7 | – | 1.39e7 | 2.69e7 | inactive |
| Nbr (Nibbler) | DRSC03166 | 3.21e7 | – | – | 1.63e7 | – | inactive |
| Nacalpha (Nascent polypeptide associated complex protein alpha subunit) | DRSC07477 | 2.47e7 | 3.45e7 | – | 1.46e7 | 1.91e7 | inactive |
| cact (cactus) | DRSC03501 | 3.32e7 | – | – | 1.90e7 | – | inactive |
| Try29F (Trypsin 29F) | DRSC03466 | 2.51e7 | 3.10e7 | – | 1.14e7 | 1.34e7 | inactive |
| f-cup (flyers-cup) | DRSC14139 | 2.28e7 | 2.40e7 | – | 1.12e7 | 1.18e7 | inactive |
| Paip1 (Poly(A) binding protein interacting protein 1) | DRSC07302 | 4.64e7 | 4.46e7 | – | 2.40e7 | 2.45e7 | inactive |
| Cad87A (Cadherin 87A) | DRSC16161 | 2.72e7 | 2.92e7 | – | 1.29e7 | 1.33e7 | inactive |
| Pex12 (Peroxin 12) | DRSC00622 | 2.33e7 | 3.12e7 | – | 1.33e7 | 1.54e7 | inactive |
| Rpn9 (Regulatory particle non-ATPase 9) | DRSC16840 | 3.71e7 | 3.75e7 | – | 1.96e7 | 1.92e7 | inactive |
| stj (straightjacket) | DRSC06124 | 3.30e7 | 3.75e7 | – | 1.48e7 | 1.58e7 | inactive |
| Nopp140 | DRSC11872 | 2.90e7 | 4.56e7 | – | 1.42e7 | 1.93e7 | inactive |
| CycJ (Cyclin J) | DRSC08653 | 4.56e7 | 3.25e7 | – | 2.82e7 | 1.48e7 | inactive |
| CG13887 | DRSC08357 | 2.56e7 | 2.41e7 | – | 1.28e7 | 1.11e7 | inactive |
| CG31789 | DRSC01645 | 2.36e7 | 3.45e7 | – | 1.24e7 | 1.37e7 | inactive |
| CG15043 | DRSC19619 | 3.59e7 | 3.54e7 | – | 2.04e7 | 1.78e7 | inactive |
| Fancl | DRSC14550 | 2.35e7 | 1.81e7 | – | 1.17e7 | 9.01e6 | inactive |
| CG33791 + CG12105 + CG18170 | DRSC08387 | 3.24e7 | 3.01e7 | – | 1.47e7 | 1.53e7 | inactive |

Next part (3 carried over from the part before).
| target gene | amplicon | calcium entry signal, replicate 1 (fluorescence units) | calcium entry signal, replicate 2 (fluorescence units) | entry to resting ratio | resting calcium signal, replicate 1 (fluorescence units) | resting calcium signal, replicate 2 (fluorescence units) | call |
| --- | --- | --- | --- | --- | --- | --- | --- |
| CG15043 | DRSC19619 | 3.59e7 | 3.54e7 | – | 2.04e7 | 1.78e7 | inactive |
| Fancl | DRSC14550 | 2.35e7 | 1.81e7 | – | 1.17e7 | 9.01e6 | inactive |
| CG33791 + CG12105 + CG18170 | DRSC08387 | 3.24e7 | 3.01e7 | – | 1.47e7 | 1.53e7 | inactive |
| Had2 (beta Hydroxy acid dehydrogenase 2) | DRSC05971 | 3.87e7 | 4.17e7 | – | 1.66e7 | 1.94e7 | inactive |
| GNBP1 (Gram-negative bacteria binding protein 1) | DRSC11169 | 3.53e7 | 4.83e7 | – | 1.72e7 | 1.98e7 | inactive |
| GNBP1 (Gram-negative bacteria binding protein 1) | DRSC21836 | 1.75e7 | 6.37e7 | – | 1.03e7 | 2.61e7 | inactive |
| Cpr62Bb (Cuticular protein 62Bb) | DRSC08404 | 3.66e7 | 3.56e7 | – | 1.86e7 | 1.79e7 | inactive |
| CycH (Cyclin H) | DRSC11861 | 3.19e7 | 5.16e7 | – | 1.51e7 | 2.13e7 | inactive |
| CycH (Cyclin H) | DRSC21308 | 5.15e7 | 3.18e7 | – | 2.33e7 | 1.48e7 | inactive |
| CG8100 | DRSC10961 | 7.47e7 | 6.39e7 | – | 2.73e7 | 2.62e7 | inactive |
| CG9776 | DRSC12127 | 3.38e7 | 4.26e7 | – | 1.64e7 | 3.09e7 | inactive |
| Or7a (Odorant receptor 7a) | DRSC18691 | 3.12e7 | 4.26e7 | – | 1.61e7 | 1.94e7 | inactive |
| CG11400 | DRSC06070 | 4.15e7 | 3.93e7 | – | 1.88e7 | 1.78e7 | inactive |
| CG4998 | DRSC10466 | 4.10e7 | 5.66e7 | – | 2.02e7 | 2.55e7 | inactive |
| CG4998 | DRSC22911 | 4.09e7 | 4.10e7 | – | 2.32e7 | 1.95e7 | inactive |
| CG10211 | DRSC02027 | 5.46e7 | 4.02e7 | – | 2.26e7 | 1.72e7 | inactive |
| CG33475 | DRSC22943 | 4.23e7 | 3.41e7 | – | 2.00e7 | 1.49e7 | inactive |
| RhoGAP71E (Rho GTPase activating protein at 71E) | DRSC10232 | 4.90e7 | 5.73e7 | – | 1.97e7 | 3.72e7 | inactive |
| RhoGAP71E (Rho GTPase activating protein at 71E) | DRSC10837 | 3.45e7 | 2.92e7 | – | 1.50e7 | 1.26e7 | inactive |
| RhoGAP71E (Rho GTPase activating protein at 71E) | DRSC10838 | 3.40e7 | 3.78e7 | – | 1.59e7 | 1.45e7 | inactive |
| CG18278 + CG30059 | DRSC05418 | 2.50e7 | 4.19e7 | – | 1.28e7 | 1.87e7 | inactive |
| CG14142 | DRSC10145 | 2.35e7 | 4.39e7 | – | 1.32e7 | 1.70e7 | inactive |
| CG5665 | DRSC11783 | 2.38e7 | 4.28e7 | – | 1.10e7 | 1.64e7 | inactive |
| PsGEF (Protostome-specific GEF) | DRSC18596 | 2.04e7 | 3.95e7 | 1.9 | 1.05e7 | 1.58e7 | inactive |
| PsGEF (Protostome-specific GEF) | DRSC18600 | 2.84e7 | 3.66e7 | 2 | 1.42e7 | 1.56e7 | inactive |
| PsGEF (Protostome-specific GEF) | DRSC18601 | 3.31e7 | 4.26e7 | 2.2 | 1.54e7 | 1.77e7 | inactive |
| witty (without maturity) | DRSC02378 | 3.56e7 | 6.23e7 | – | 1.88e7 | 2.65e7 | inactive |
| witty (without maturity) | DRSC21650 | 3.91e7 | 4.15e7 | – | 2.25e7 | 1.87e7 | inactive |
